The values that follow come from PubChem BioAssay AID1347426 (Functional Genomics Laboratory (NCATS/FGL), 2020).

The whole screen tested about 31,000 sequences, of which about 1,400 (4.5%) were called active.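 Rule for the calls: active = median seed-adjusted z-score above 1 or below -1; inactive = the rest.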 The list shows a part of the results.

The experiment is described as follows: Novel Modifiers of Survival Motor Neuron (SMN) Protein: Gene Identification via Genome-wide siRNA Screen.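 Note: luminescence tracks full-length SMN protein made from the SMN2 reporter.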 The settings on record: HEK293T SMN2-luciferase reporter, siRNA knockdown, 72 h; actives lie on both sides. Put shortly:
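Luciferase signal, proportional to full-length SMN made from an SMN2 cDNA reporter in stable HEK293T cells, was read 72 h after siRNA reverse transfection. Values were expressed as MAD scores after non-targeting-control normalization and log10 conversion; seed analysis flagged off-targets.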
On the technique in general: Reporter assays use an easily measured gene product as a stand-in for the process of interest.
UGAAGUUGCUGGACGCGUATT against DAD1: the median seed-adjusted z-score was inactive: -0.45. With CUACAACUGUGGAGGUCUATT against LIN28 the figure was inactive: -0.348; with CCUAAAACCUAGUAAUCUATT against MAPK14, inactive: 0.142. For the sequence CAAUCAAUGGAGAAGAUAUTT against NFYB, the median seed-adjusted z-score is inactive: -0.29. As for GGAUACUAUUGCUAAGGUATT against RECK, the figure is inactive: -0.000321. In the case of CAUCAAUUCUAGAUCUUCATT against KERA, the median seed-adjusted z-score is inactive: 0.238.

Take GCCGAGCUCUUUAUCCUCUTT against TRHDE: the median seed-adjusted z-score was inactive: 0.429. With GUAAGUUACAAGAACGGAATT against DYNC2H1 the figure was inactive: -0.613; with AAGCGGAGCUGGUACCUUATT against POMGNT1, inactive: -0.0431; with GAAUAACCCAAGUCGCUAUTT against BRIP1, inactive: 0.312. As for GCCCAUUGGAUAUCAGUAUTT against STRADB, the figure is inactive: 0.21.

On to GCUUUACAACAAUCACAUATT against AMIGO2, for which the median seed-adjusted z-score is inactive: -0.258.

Consider GGAUUAUAUCGUGAACCUUTT against ZNF285A, for which the median seed-adjusted z-score was inactive: 0.148. As for GCUUCAGCUCCAAAACCAATT against ZNF467, the figure is inactive: 0; as for GGACAUUCGGGAACAGUCUTT against RIN1, inactive: -0.0694. As for GCUAUUGUCAAUAAGGAUATT against ZFPM2, the figure is inactive: 0.087; as for GGUUGCAAGAGGACUCUUATT against DUS4L, inactive: 0.525; as for GCUAGUGCGUUUCUCUAUATT against CATSPER2, inactive: -0.653. As for GGUAAAGAGAGCAAAAAGATT against EHD1, the median seed-adjusted z-score is inactive: -0.616. As to GUUCCAAACUUAUUACGCATT against ZNF544, the median seed-adjusted z-score was inactive: -0.00739. As for GCAUCUACCUAGGAGACAATT against LRAT, the figure is inactive: 0.345; as for ACUCCUCUCUGUUAAUGGATT against LIN7C, inactive: 0.021. CUAUCUUUUCGGUUGUGAATT against NPM1: the median seed-adjusted z-score was inactive: 0.141. As for UGUCCUUGGUGAUAGAAAUTT against CITED2, the figure is inactive: -0.0248; as for GCUUCCAACUGCUUAUAUATT against TP53RK, inactive: 0. As for CCUUGAAUGUCUACCACAATT against GNPNAT1, the figure is inactive: 0.313; as for GAUUGAUAGCUGUACGUAUTT against CBL, inactive: -0.417. As for GCAUGAACCCGGUGAUCUATT against CCR3, the figure is inactive: -0.334; as for AAAUCACACCAAACACUUATT against STX11, inactive: -0.518.

As to GGGCAGAAGUUCAUCAGGATT against PIK3R5, the median seed-adjusted z-score was inactive: 0.799. As for CCAAACAAGAGAUCUCUGATT against KRT75, the figure is inactive: 0.0773; as for GGCAGAGCCUGUUACCUGATT against RGS11, inactive: 0; as for CGAAGGAUGGUCCCAAAUATT against CAPN13, inactive: 0.208.

Regarding CCAUCGCACAACCCAAAAATT against CLDN8, the median seed-adjusted z-score is inactive: 0.542. With CCGUAUGCAGCACAAGAAATT against SOX10 the figure was inactive: -0.255; with GAAACAUCAUUUUUGCGAATT against THBS4, inactive: -0.28; with GGGCGGUACUUUACAACUATT against KCTD9, active: 1.31. With GAAAAUUUAUGGAUCUUGUTT against E2F6 the figure was inactive: -0.299; with AGAUGUCCUACACCACAUATT against REXO1, inactive: -0.748. As for CCAUGGUGAACGACAGAAATT against SPRED2, the figure is inactive: -0.749. With GGUCGACUGUUUCUACACUTT against MAP2K3, the median seed-adjusted z-score was inactive: 0.365. With GCCCGUCAUUGAAAUGAGATT against BTN2A3 the figure was inactive: -0.483; with CACCGUAUCCAGCACAUUATT against EYA1, inactive: 0.0838. With CACCUGAAAUAUCACAAUUTT against SLC15A2 the figure was inactive: 0.322. With GGGCGGUAUUGAUCCACUATT against RCOR2 the figure was inactive: -0.129; with ACAAUUAUUGGAAAGAGAATT against SPRYD5, inactive: 0.151. Regarding CUACCAGCCCUACACCAUUTT against CCL1, the median seed-adjusted z-score was inactive: 0.537.

On to CGAAGAGGCUAUCAAAGGATT against ELAVL3, for which the median seed-adjusted z-score is inactive: -0.151. With CCAUUAAGGUGGAGUGUUATT against CPNE3 the figure was inactive: 0.109; with UAAGAACUCUUUUCGAGGATT against EXOSC1, inactive: 0.0508; with CGCCUUCCGCGACAAGUUUTT against CHST8, inactive: 0.341. As for CCAUGACGAUGGGACCUAUTT against NELL1, the figure is inactive: -0.466; as for GAAUGGAGGUCAACUAUAUTT against UBE2E2, active: -1.77; as for GGCUAUACGGUGAAAAUCATT against CACYBP, inactive: -0.33. With CAUCGGAACUGCAAUGUUATT against METTL5 the figure was inactive: 0.221. Take CCGUCUUCAGAAAAGCGAATT against CLASP1: the median seed-adjusted z-score was inactive: 0.0472. With AGGAGAAGUUUGCACUGGATT against OSBPL5 the figure was inactive: 0.638; with GCAAGCCUUUCAAAUGGUATT against GALNT2, inactive: 0.0798; with CACUGUUUAUGUAAAAUCATT against SPDYA, inactive: 0.351. For GCCGUGUGACAAUCGAAUATT against ALDH9A1, the median seed-adjusted z-score was inactive: -0.297. With GAACUUACGGUAACAGGCATT against PYCRL the figure was inactive: 0.498; with GACUGGGACUUCUCGAUGATT against BDH2, inactive: -0.242; with GAAUCCAGUUAUCAUCAAATT against ST3GAL5, inactive: 0.11. As for GGUCAUUCACUAGUAUCAATT against MAP3K2, the figure is inactive: 0. Consider ACCACAAGUUCAUCCGGAATT against TRIM50, for which the median seed-adjusted z-score is inactive: 0. With GCAUGAUUGCGCUCAUGGATT against CAPN3 the figure was inactive: 0.0426; with AGGAAGAGUUUAACAUUGATT against ATP6V1E2, inactive: -0.162. With CAUUGGAAUUCUUUCAAUATT against APTX the figure was inactive: -0.131; with GCAGAUCGAUUUCUCAACATT against ABCA1, active: -1.27; with CCAAGGUACUAACAUGGGATT against AP3M1, inactive: 0. With CUCUUUACCCACAACUUAATT against ZNF540 the figure was inactive: -0.439. As to CUACGACAUUUGCUUCAGATT against TUBB2C, the median seed-adjusted z-score is inactive: 0. Regarding GAGGGUCUCUGGUACCUGATT against PRSS8, the median seed-adjusted z-score is inactive: -0.275. With GACCUACUGUCAAGAUACATT against SIGLEC12 the figure was inactive: 0.226; with CAAACUUCCGUAUCACAGUTT against GPD1, inactive: 0.558. As to UGAGCACUGUGAAAUCCAATT against KCNE2, the median seed-adjusted z-score was inactive: -0.666. For GGCCUAGGCUCUCUGUAGATT against TIMM10, the median seed-adjusted z-score is inactive: 0.0738. As for GGAACACGCUGUUCAUUGATT against SERPINA12, the median seed-adjusted z-score was inactive: -0.382. Turning to GAUCAAUCCAGGGACUAUATT against CHD9, the median seed-adjusted z-score was inactive: 0.218.

In the case of GGUGUCCUCCAUCUACUUATT against MRGPRF, the median seed-adjusted z-score was inactive: -0.654. On to AUAUGUACCUUACUCGAGATT against HOXA10, for which the median seed-adjusted z-score was inactive: -0.112. Take CCACUACCCUGAGAACUUUTT against TOP3B: the median seed-adjusted z-score is active: -1.11. For GCCCAGCAGUAUCUCCUAUTT against CPA6, the median seed-adjusted z-score was inactive: 0.343. With UGCUGGUGUUUAAACCCAUTT against C5AR1 the figure was inactive: 0.366; with ACUAAGAUUUAUUACUGUATT against DDX11, inactive: 0; with GACUCCAAUUCAUAUAUCATT against CDKN3, inactive: -0.03. Consider GGAUCGUCUUCAACGUAUUTT against HCN3, for which the median seed-adjusted z-score is inactive: 0.301. As for CAGUAUAUGUCAAACCUCUTT against GJB4, the figure is inactive: 0.131. With CUACUACGGAGACUACCAATT against LHX5 the figure was inactive: -0.414; with GUAGGAAAGUUUAUCCAGUTT against GPAM, inactive: 0.237. As for ACAGCGACGUGUUCUCUGATT against PKN1, the figure is inactive: -0.753; as for GACAAAUUGUUGAAGAGGATT against ZNF133, inactive: -0.199. On to GCUUCAUCAAGCUACCCAATT against FOXF1, for which the median seed-adjusted z-score is inactive: -0.148.

In the case of UCAGUUCCCUGAAAGACUATT against APOC3, the median seed-adjusted z-score was inactive: 0.185. As for GGAUUCUUACCGGAUAUUATT against DDB2, the figure is inactive: 0. As for GAUGAAAGGUUACAAUCCATT against EIF2B5, the figure is inactive: -0.432. As for CAAACUAGAUUGUAAUUCATT against PCDHGA12, the figure is inactive: 0.561; as for GGAUCCAAGAGAAAUGCGATT against GPR115, inactive: -0.189; as for GCUCAAUGCUUCGAAUUCATT against HDAC9, inactive: -0.135. With CACCUGUGCUAUUACCACATT against SEC63, the median seed-adjusted z-score was inactive: -0.159. As for GCUGCACACCGUAACCACATT against OPN5, the figure is inactive: 0.483. With GUGUCGAAGUGGAAACUGATT against EXOSC7 the figure was inactive: 0.0148; with GGGAAGGCAAUAAAACUUATT against TAAR9, active: -1.07; with GCACUUACAGGACCAUGUATT against EGFL8, inactive: 0.365.

Turning to CGAUAACAACGACAUUGCATT against COL6A1, the median seed-adjusted z-score is inactive: 0.509.

As to CACUGUCCUUGGGUGAAUATT against ZDHHC20, the median seed-adjusted z-score is inactive: -0.936. As for GAUGAUCAGUAGAAUUGAATT against CSNK1A1, the figure is inactive: -0.608.
